No constants are given. Whether binding was seen depends on the method and setting. Binding seen in cells or lysates may run through a third protein. A yes stands for co-enrichment or nearness to the bait. Other partners may have been found. Where a sequence is shown, tags or fusion partners need not be part of it.
Molecular target: T1, GST-tagged USP8 MIT domain (1-142) (human) (UniProt P40818)
T1 sequence: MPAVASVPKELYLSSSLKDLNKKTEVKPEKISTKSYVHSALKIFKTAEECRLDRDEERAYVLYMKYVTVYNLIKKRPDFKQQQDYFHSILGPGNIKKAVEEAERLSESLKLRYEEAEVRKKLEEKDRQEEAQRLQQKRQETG
Assay: proteomic peptide-phage display (ProP-PD) selection; 10 µg GST-tagged bait immobilised on MaxiSorp plate; M13 phage library of the human disorderome pre-cleared on GST; four rounds, PBS, 2 h at 4 °C; enriched pools read by NGS; only the target purified

In the case of “HIVEP1 741-756 peptide, displayed on M13 phage (from UniProt P15822 741-756)”, the binding is reported as “binds”.

— PMC12057046, “Elucidation of short linear motif-based interactions of the MIT and rhodanese domains of the ubiquitin-specific protease 8” (Biology Direct, 2025)
